Negatives hold for the conditions tested.
Biological target: Tenascin-C (Homo sapiens) (UniProt P24821)
Assay: filter binding
Conditions: 2'-F all C and U; 2'-OMe G28,G31,G34; 3'-3' dT cap; listed as nb in Kd column; purified native protein; protein details: Chemicon (Temecula, CA); variant of TN9.4

By UniProt entry, the sequences of proteins in these tests, tags left out. Residues count along the entry.
UniProt P24821, 23-2201: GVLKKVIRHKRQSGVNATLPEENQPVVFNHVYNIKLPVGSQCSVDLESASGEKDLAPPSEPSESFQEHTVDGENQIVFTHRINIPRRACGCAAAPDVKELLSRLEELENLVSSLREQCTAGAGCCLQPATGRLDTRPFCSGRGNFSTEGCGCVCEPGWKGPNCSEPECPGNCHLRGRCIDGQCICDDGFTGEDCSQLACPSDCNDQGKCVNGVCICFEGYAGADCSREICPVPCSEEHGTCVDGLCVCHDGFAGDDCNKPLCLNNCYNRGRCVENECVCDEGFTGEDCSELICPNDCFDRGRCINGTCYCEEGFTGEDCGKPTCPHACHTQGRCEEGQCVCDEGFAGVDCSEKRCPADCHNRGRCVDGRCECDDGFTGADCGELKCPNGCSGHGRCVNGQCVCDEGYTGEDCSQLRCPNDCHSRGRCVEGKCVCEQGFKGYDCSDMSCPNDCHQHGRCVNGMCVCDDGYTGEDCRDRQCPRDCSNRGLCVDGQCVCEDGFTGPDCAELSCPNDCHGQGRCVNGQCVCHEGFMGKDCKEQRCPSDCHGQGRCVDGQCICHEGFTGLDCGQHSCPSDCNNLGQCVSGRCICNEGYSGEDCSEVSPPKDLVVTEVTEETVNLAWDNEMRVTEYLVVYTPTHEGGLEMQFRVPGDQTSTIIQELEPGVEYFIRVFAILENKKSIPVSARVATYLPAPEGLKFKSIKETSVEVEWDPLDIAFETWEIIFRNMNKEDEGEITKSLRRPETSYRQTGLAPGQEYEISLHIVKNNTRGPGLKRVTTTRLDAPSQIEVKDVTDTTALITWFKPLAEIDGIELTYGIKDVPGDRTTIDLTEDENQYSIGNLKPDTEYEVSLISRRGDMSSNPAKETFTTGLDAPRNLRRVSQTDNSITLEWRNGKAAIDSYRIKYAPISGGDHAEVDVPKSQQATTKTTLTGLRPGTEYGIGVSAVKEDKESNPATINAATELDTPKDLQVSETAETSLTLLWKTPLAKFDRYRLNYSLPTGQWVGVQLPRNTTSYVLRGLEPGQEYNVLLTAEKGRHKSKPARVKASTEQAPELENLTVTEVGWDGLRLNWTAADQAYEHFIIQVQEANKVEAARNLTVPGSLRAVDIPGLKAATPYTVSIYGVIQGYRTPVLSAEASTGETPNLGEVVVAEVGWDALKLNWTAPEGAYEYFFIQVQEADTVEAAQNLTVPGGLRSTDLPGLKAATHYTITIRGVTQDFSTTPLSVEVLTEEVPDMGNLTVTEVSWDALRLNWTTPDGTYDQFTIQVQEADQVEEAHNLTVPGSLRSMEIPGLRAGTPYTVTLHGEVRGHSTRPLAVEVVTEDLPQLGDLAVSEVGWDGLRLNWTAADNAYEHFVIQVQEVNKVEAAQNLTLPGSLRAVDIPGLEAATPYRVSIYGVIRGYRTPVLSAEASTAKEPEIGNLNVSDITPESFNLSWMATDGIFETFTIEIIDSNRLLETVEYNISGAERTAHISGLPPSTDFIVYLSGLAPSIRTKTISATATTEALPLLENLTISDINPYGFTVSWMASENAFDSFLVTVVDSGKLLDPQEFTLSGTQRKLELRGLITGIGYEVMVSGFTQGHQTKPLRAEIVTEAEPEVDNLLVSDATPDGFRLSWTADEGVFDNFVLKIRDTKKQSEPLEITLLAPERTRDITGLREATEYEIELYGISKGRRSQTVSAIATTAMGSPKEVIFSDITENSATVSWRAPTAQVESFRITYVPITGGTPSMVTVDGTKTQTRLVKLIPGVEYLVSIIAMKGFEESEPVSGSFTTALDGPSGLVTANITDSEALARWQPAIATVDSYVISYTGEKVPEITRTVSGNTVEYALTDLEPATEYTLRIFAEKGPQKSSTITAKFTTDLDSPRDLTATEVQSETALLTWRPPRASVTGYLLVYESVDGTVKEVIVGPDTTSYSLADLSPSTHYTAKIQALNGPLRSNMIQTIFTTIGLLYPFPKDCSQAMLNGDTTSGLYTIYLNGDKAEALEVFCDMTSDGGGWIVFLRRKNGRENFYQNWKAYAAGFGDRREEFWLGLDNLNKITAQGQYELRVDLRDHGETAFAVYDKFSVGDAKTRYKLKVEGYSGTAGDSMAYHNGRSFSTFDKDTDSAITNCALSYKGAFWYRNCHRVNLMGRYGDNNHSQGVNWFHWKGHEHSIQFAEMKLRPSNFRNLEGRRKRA

GGGAGGACGAUGCGGAACAAUGCACUCGUCGCCGUAAUGGAUGUUUUGCUCCCUG [TN9.4M4]
binding result: no binding
